Sequences and labels used below:
B1: SEQ ID NO 60 (designed binder)
chain: MLSPPSNLRVTDVTSTSVTLSWKPPAPITGYFVLYKELLQDGEWKTVLVPGSETSYTVTGLKPGTEYPFPVWAVNGALAGFPSQFVEVTT
B2: SEQ ID NO 63 (designed binder)
chain: MLSPPSNLRVTDVTSTSVTLSWKPPAPITGYSVTYNETTLDGEWKQVSVPGSETSYTVTGLKPGTEYVFSVNAVNGAKEGEPSQWVVVTT
B3: SEQ ID NO 73 (designed binder)
chain: MLSPPSNLRVTDVTSTSVTLSWKPPAPITGYYVQYNETTLTGEWKQVRVPGSETSYTVTGLKPGTEYIFNVHAVNGAHYGDPSQVVTVTT
B4: SEQ ID NO 61 (designed binder)
chain: MLSPPSNLRVTDVTSTSVTLSWKPPAPITGYAVYYNETWFQGEWKHVVVPGSETSYTVTGLKPGTEYYFHVEAVNGANPGKPSQHVVVTT
B5: SEQ ID NO 56 (designed binder)
chain: MLSPPSNLRVTDVTSTSVTLSWKPPAPITGYPVHYAESDLKGEWKRVVVPGSETSYTVTGLKPGTEYVFIVQAVNGAVDGNPSQIVVVTT
B6: SEQ ID NO 51 (designed binder)
chain: MLSPPSNLRVTDVTSTSVTLSWKPPAPITGYIVFYGESLSEGEWKTVNVPGSETSYTVTGLKPGTEYTFGVDAVNGATFGPPSQWVFVTT
B7: SEQ ID NO 55 (designed binder)
chain: MLSPPSNLRVTDVTSTSVTLSWKPPAPITGYWVKYEEGPEYGEWKTVHVPGSETSYTVTGLKPGTEYTFGVDAVNGATFGPPSQWVFVTT
B8: SEQ ID NO 57 (designed binder)
chain: MLSPPSNLRVTDVTSTSVTLSWKPPAPITGYVVVYQETIHPGEWKNVHVPGSETSYTVTGLKPGTEYWFGVDAVNGATFGPPSQWVFVTT
B9: SEQ ID NO 64 (designed binder)
chain: MLSPPSNLRVTDVTSTSVTLSWKPPAPITGYQVVYSESVGWGEWKQVKVPGSETSYTVTGLKPGTEYWFGVDAVNGATFGPPSQWVFVTT
B10: SEQ ID NO 70 (designed binder)
chain: MLSPPSNLRVTDVTSTSVTLSWKPPAPITGYWVTYEESTSHGEWKFVWVPGSETSYTVTGLKPGTEYTFGVDAVNGATFGPPSQWVFVTT
B11: SEQ ID NO 53 (designed binder)
chain: MLSPPSNLRVTDVTSTSVTLSWKPPAPITGYVVLYWEASVQGEWKWVLVPGSETSYTVTGLKPGTEYTFGVDAVNGATFGPPSQWVFVTT
B12: SEQ ID NO 68 (designed binder)
chain: MLSPPSNLRVTDVTSTSVTLSWKPPAPITGYYVSYEEHPNDGEWKYVEVPGSETSYTVTGLKPGTEYTFGVDAVNGATFGPPSQWVFVTT
B13: SEQ ID NO 54 (designed binder)
chain: MLSPPSNLRVTDVTSTSVTLSWKPPAPITGYRVGYVEHLGAGEWKFVWVPGSETSYTVTGLKPGTEYTFGVDAVNGATFGPPSQWVFVTT
B14: SEQ ID NO 67 (designed binder)
chain: MLSPPSNLRVTDVTSTSVTLSWKPPAPITGYYVRYSESVDYGEWKWVLVPGSETSYTVTGLKPGTEYTFGVDAVNGATFGPPSQWVFVTT
B15: SEQ ID NO 71 (designed binder)
chain: MLSPPSNLRVTDVTSTSVTLSWKPPAPITGYGVLYQESLHDGEWKWVLVPGSETSYTVTGLKPGTEYTFGVDAVNGATFGPPSQWVFVTT
B16: SEQ ID NO 69 (designed binder)
chain: MLSPPSNLRVTDVTSTSVTLSWKPPAPITGYFVSYTEGLEQGEWKFVLVPGSETSYTVTGLKPGTEYTFGVDAVNGATFGPPSQWVFVTT
B17: SEQ ID NO 62 (designed binder)
chain: MLSPPSNLRVTDVTSTSVTLSWKPPAPITGYTVGYIEHPLSGEWKIVYVPGSETSYTVTGLKPGTEYTFGVDAVNGATFGPPSQWVFVTT
B18: SEQ ID NO 65 (designed binder)
chain: MLSPPSNLRVTDVTSTSVTLSWKPPAPITGYGVSYEEVYGFGEWKHVYVPGSETSYTVTGLKPGTEYVFSVLAVNGATFGPPSQWVFVTT
B19: SEQ ID NO 52 (designed binder)
chain: MLSPPSNLRVTDVTSTSVTLSWKPPAPITGYAVLYTETYYEGEWKQVHVPGSETSYTVTGLKPGTEYDFRVSAVNGATIGTPSQYVIVTT
B20: SEQ ID NO 59 (designed binder)
chain: MLSPPSNLRVTDVTSTSVTLSWKPPAPITGYIVHYSEFIFVGEWKHVLVPGSETSYTVTGLKPGTEYDFRVSAVNGATIGTPSQYVIVTT
B21: SEQ ID NO 66 (designed binder)
chain: MLSPPSNLRVTDVTSTSVTLSWKPPAPITGYYVNYYEGPSDGEWKYVKVPGSETSYTVTGLKPGTEYWFWVQAVNGASVGPPSQDVGVTT
B22: SEQ ID NO 72 (designed binder)
chain: MLSPPSNLRVTDVTSTSVTLSWKPPAPITGYYVFYDETVFLGEWKHVYVPGSETSYTVTGLKPGTEYAFTVAAVNGAVQGNPSQGVVVTT
B23: SEQ ID NO 58 (designed binder)
chain: MLSPPSNLRVTDVTSTSVTLSWKPPAPITGYWVSYLESTFIGEWKWVHVPGSETSYTVTGLKPGTEYVFVVQAVNGAPFGGPSQHVVVTT

Our source for the binding values is patent US20250085290A1.

Results are given in words; binding and its absence hold for the method and conditions named. Some binding calls cover weakened binding; strength is not graded here.

The target of the assay is CD71 (UniProt P02786). Briefly: CIS display panning, then ELISA. For orientation: In an ELISA, binding on a coated surface is turned into a signal by an enzyme label.
On to B1, for which the binding result was “binds”.

For the molecule B2, the binding result is reported as “binds”.

On to B3, for which the binding entry is on record as “binds”.

Take B4: the binding entry is “binds”.

On to B5, for which the binding result is given as “binds”.

B6: the binding result is reported as “binds”.

Consider B7, for which the binding entry is “binds”.

As to B8, the binding entry is recorded as “binds”.

B9: the binding entry is “binds”.

On to B10, for which the binding entry is given as “binds”.

For the molecule B11, the binding entry is on record as “binds”.

Regarding B12, the binding result is listed as “binds”.

On to B13, for which the binding entry is recorded as “binds”.

Regarding B14, the binding result is reported as “binds”.

In the case of B15, the binding result is given as “binds”.

As to B16, the binding result was “binds”.

With B17, the binding result is on record as “binds”.

As for B18, the binding entry is on record as “binds”.

Take B19: the binding entry is reported as “binds”.

B20: the binding result was “binds”.

On to B21, for which the binding entry is reported as “binds”.

Regarding B22, the binding result is on record as “binds”.

In the case of B23, the binding result is listed as “binds”.
